{"source": "PubChem BioAssay AID686938 (Drosophila RNAi Screening Center, 2013)", "assay": "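Knock-downs reducing store-operated calcium influx in Drosophila cells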 (primary screen)", "system": "Drosophila S2R+ cells", "knock-down reagent": "long dsRNA against Drosophila genes, about 0.25 µg dsRNA per well, roughly 10,000 cells", "time to read-out": "5 days of knock-down before the calcium assay", "challenge": "thapsigargin (SERCA pump blocker) to empty calcium stores; entry signal taken 4 min after adding it", "read-out": "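Duplicate raw fluo-4 intensities per well from a plate reader, at rest and four minutes after thapsigargin emptied calcium stores; entry-to-rest ratio filled for only some wells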", "direction": "calcium entry signal: higher = stronger calcium signal after store depletion; entry to resting ratio: higher = more calcium entry relative to resting level; resting calcium signal: higher = higher resting calcium signal", "units": "calcium entry signal in fluorescence units; resting calcium signal in fluorescence units", "rule for the call": "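Called when the plate z-score of the entry-to-rest ratio, mean of duplicates, falls below −3; wells with low overall dye signal (Fmax z below −2) or more than five off-targets excluded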", "meaning of the calls": "active = strongly reduced calcium entry; inactive = no strong reduction", "note": "In all, the deposit lists about 23,000 reagents; this is an unselected part of those with a known target gene and a result. Of all reagents, 75 (0.33%) got an active call. 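Raw plate signals without normalisation; calls rest on plate z-scores that were not deposited; ratio present for only 364 wells.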 A plus sign joins genes that one reagent is predicted to hit. Not stated in the record: the dose of the treatment."}
{"target gene": "CG5653 (GeneID 39024)", "DRSC id": "DRSC10534", "calcium entry signal, replicate 1": 3.72e7, "calcium entry signal, replicate 2": 5.10e7, "resting calcium signal, replicate 1": 1.69e7, "resting calcium signal, replicate 2": 2.28e7, "call": "inactive"}
{"target gene": "CG43278 (retired record) (GeneID 12797947)", "DRSC id": "DRSC17524", "calcium entry signal, replicate 1": 2.90e7, "calcium entry signal, replicate 2": 3.95e7, "resting calcium signal, replicate 1": 1.32e7, "resting calcium signal, replicate 2": 1.78e7, "call": "inactive"}
{"target gene": "Nxf3 (GeneID 317878)", "DRSC id": "DRSC21749", "calcium entry signal, replicate 1": 3.37e7, "calcium entry signal, replicate 2": 4.26e7, "resting calcium signal, replicate 1": 1.86e7, "resting calcium signal, replicate 2": 1.95e7, "call": "inactive"}
{"target gene": "CG10616 (GeneID 39420)", "DRSC id": "DRSC09750", "calcium entry signal, replicate 1": 4.44e7, "calcium entry signal, replicate 2": 4.36e7, "resting calcium signal, replicate 1": 3.03e7, "resting calcium signal, replicate 2": 1.79e7, "call": "inactive"}
{"target gene": "Cyp4ae1 (GeneID 31193)", "DRSC id": "DRSC18455", "calcium entry signal, replicate 1": 2.66e7, "calcium entry signal, replicate 2": 4.00e7, "resting calcium signal, replicate 1": 1.23e7, "resting calcium signal, replicate 2": 1.92e7, "call": "inactive"}
{"target gene": "CG13008 (GeneID 32654)", "DRSC id": "DRSC19527", "calcium entry signal, replicate 1": 3.50e7, "calcium entry signal, replicate 2": 3.38e7, "resting calcium signal, replicate 1": 1.85e7, "resting calcium signal, replicate 2": 1.58e7, "call": "inactive"}
{"target gene": "CG13008 (GeneID 32654)", "DRSC id": "DRSC19528", "calcium entry signal, replicate 1": 3.46e7, "calcium entry signal, replicate 2": 3.40e7, "resting calcium signal, replicate 1": 1.76e7, "resting calcium signal, replicate 2": 1.51e7, "call": "inactive"}
{"target gene": "CG3744 (GeneID 42972)", "DRSC id": "DRSC15511", "calcium entry signal, replicate 1": 4.29e7, "calcium entry signal, replicate 2": 5.85e7, "resting calcium signal, replicate 1": 2.11e7, "resting calcium signal, replicate 2": 2.39e7, "call": "inactive"}
{"target gene": "whd (GeneID 36109)", "DRSC id": "DRSC07351", "calcium entry signal, replicate 1": 4.60e7, "calcium entry signal, replicate 2": 4.45e7, "resting calcium signal, replicate 1": 1.89e7, "resting calcium signal, replicate 2": 2.11e7, "call": "inactive"}
{"target gene": "TH1 (GeneID 32607)", "DRSC id": "DRSC20289", "calcium entry signal, replicate 1": 4.05e7, "calcium entry signal, replicate 2": 3.81e7, "resting calcium signal, replicate 1": 1.74e7, "resting calcium signal, replicate 2": 1.92e7, "call": "inactive"}
{"target gene": "DIP-delta (GeneID 5740816)", "DRSC id": "DRSC10214", "calcium entry signal, replicate 1": 2.98e7, "calcium entry signal, replicate 2": 4.32e7, "resting calcium signal, replicate 1": 1.55e7, "resting calcium signal, replicate 2": 1.93e7, "call": "inactive"}
{"target gene": "DIP-delta (GeneID 5740816)", "DRSC id": "DRSC10450", "calcium entry signal, replicate 1": 2.79e7, "calcium entry signal, replicate 2": 4.80e7, "resting calcium signal, replicate 1": 1.34e7, "resting calcium signal, replicate 2": 2.11e7, "call": "inactive"}
{"target gene": "TRAM (GeneID 31042)", "DRSC id": "DRSC18178", "calcium entry signal, replicate 1": 4.91e7, "calcium entry signal, replicate 2": 5.79e7, "entry to resting ratio": 2, "resting calcium signal, replicate 1": 2.48e7, "resting calcium signal, replicate 2": 2.25e7, "call": "inactive"}
{"target gene": "TRAM (GeneID 31042)", "DRSC id": "DRSC18651", "calcium entry signal, replicate 1": 5.29e7, "calcium entry signal, replicate 2": 5.73e7, "entry to resting ratio": 2, "resting calcium signal, replicate 1": 2.64e7, "resting calcium signal, replicate 2": 2.27e7, "call": "inactive"}
{"target gene": "Eglp3 (GeneID 37738)", "DRSC id": "DRSC04293", "calcium entry signal, replicate 1": 4.11e7, "calcium entry signal, replicate 2": 5.09e7, "resting calcium signal, replicate 1": 2.18e7, "resting calcium signal, replicate 2": 2.34e7, "call": "inactive"}
{"target gene": "CG12594 (GeneID 41416)", "DRSC id": "DRSC14532", "calcium entry signal, replicate 1": 4.10e7, "calcium entry signal, replicate 2": 3.45e7, "resting calcium signal, replicate 1": 2.07e7, "resting calcium signal, replicate 2": 1.76e7, "call": "inactive"}
{"target gene": "tplus3a + tplus3b", "DRSC id": "DRSC03687", "calcium entry signal, replicate 1": 3.12e7, "calcium entry signal, replicate 2": 5.89e7, "resting calcium signal, replicate 1": 1.46e7, "resting calcium signal, replicate 2": 2.24e7, "call": "inactive"}
{"target gene": "CG4360 (GeneID 42413)", "DRSC id": "DRSC15566", "calcium entry signal, replicate 1": 3.73e7, "calcium entry signal, replicate 2": 4.50e7, "resting calcium signal, replicate 1": 5.32e7, "resting calcium signal, replicate 2": 1.87e7, "call": "inactive"}
{"target gene": "Pif1 (GeneID 33567)", "DRSC id": "DRSC00582", "calcium entry signal, replicate 1": 4.15e7, "resting calcium signal, replicate 1": 2.46e7, "call": "inactive"}
{"target gene": "CG31140 (GeneID 42836)", "DRSC id": "DRSC13649", "calcium entry signal, replicate 1": 4.30e7, "calcium entry signal, replicate 2": 2.99e7, "resting calcium signal, replicate 1": 1.84e7, "resting calcium signal, replicate 2": 1.51e7, "call": "inactive"}
{"target gene": "CG31140 (GeneID 42836)", "DRSC id": "DRSC14603", "calcium entry signal, replicate 1": 2.92e7, "calcium entry signal, replicate 2": 2.74e7, "resting calcium signal, replicate 1": 1.41e7, "resting calcium signal, replicate 2": 1.31e7, "call": "inactive"}
{"target gene": "CG31140 (GeneID 42836)", "DRSC id": "DRSC15904", "calcium entry signal, replicate 1": 5.18e7, "calcium entry signal, replicate 2": 6.44e7, "resting calcium signal, replicate 1": 2.42e7, "resting calcium signal, replicate 2": 2.61e7, "call": "inactive"}
{"target gene": "CG1785 (GeneID 31810)", "DRSC id": "DRSC18139", "calcium entry signal, replicate 1": 2.19e7, "calcium entry signal, replicate 2": 2.69e7, "resting calcium signal, replicate 1": 1.19e7, "resting calcium signal, replicate 2": 1.36e7, "call": "inactive"}
{"target gene": "tbc (GeneID 318059)", "DRSC id": "DRSC20540", "calcium entry signal, replicate 1": 5.47e7, "calcium entry signal, replicate 2": 4.99e7, "resting calcium signal, replicate 1": 2.67e7, "resting calcium signal, replicate 2": 2.18e7, "call": "inactive"}
{"target gene": "tbc (GeneID 318059)", "DRSC id": "DRSC23084", "calcium entry signal, replicate 1": 4.02e7, "calcium entry signal, replicate 2": 2.90e7, "resting calcium signal, replicate 1": 1.95e7, "resting calcium signal, replicate 2": 1.25e7, "call": "inactive"}
{"target gene": "CG18335 (GeneID 36202)", "DRSC id": "DRSC06723", "calcium entry signal, replicate 1": 2.41e7, "calcium entry signal, replicate 2": 4.01e7, "resting calcium signal, replicate 1": 1.25e7, "resting calcium signal, replicate 2": 1.68e7, "call": "inactive"}
{"target gene": "CG31975 + ovm", "DRSC id": "DRSC00323", "calcium entry signal, replicate 1": 3.62e7, "calcium entry signal, replicate 2": 3.85e7, "resting calcium signal, replicate 1": 2.26e7, "resting calcium signal, replicate 2": 1.82e7, "call": "inactive"}

2 consecutive records from above, for reference:
{"target gene": "tbc (GeneID 318059)", "DRSC id": "DRSC20540", "calcium entry signal, replicate 1": 5.47e7, "calcium entry signal, replicate 2": 4.99e7, "resting calcium signal, replicate 1": 2.67e7, "resting calcium signal, replicate 2": 2.18e7, "call": "inactive"}
{"target gene": "tbc (GeneID 318059)", "DRSC id": "DRSC23084", "calcium entry signal, replicate 1": 4.02e7, "calcium entry signal, replicate 2": 2.90e7, "resting calcium signal, replicate 1": 1.95e7, "resting calcium signal, replicate 2": 1.25e7, "call": "inactive"}
